Patent publication US20030157685A1
No constants are given. Whether binding was seen depends on the method and setting. A result given as binding can be weak or reduced; the word gives no strength. Sequences can lack the tags named with a protein.

Molecular target: carboxy terminus of Myc
Test: yeast two-hybrid

- binding: binds
B1: p32.2, polypeptide of 756 amino acids encoded by clone 32.2, fused in frame with the B42 activation domain of the pJG-4.5 vector (protein, not shown: large carriers)
chain: IENDQQHQAAELECEEDVIPDSPITAFSFSGVNRLRRKENPHVRYIEQTHTKLEHSVCANEMRKVSKSSTHPQHNPNENEILVADTYDQSQSPMAKAHGTSSYTPDKSSFNLATVVAETLGLGVQEESETQGPMSPLGDELYHCLEGNHKKQPFEESTRNTEDSLRFSDSTSKTPPQEELPTRVSSPVFGATSSIKSGLDLNTSLSPSLLQPGKKKHLKTLPFSNTCISRLEKTRSKSEDSALFTHHSLGSEVNKIIIQSSNKQILINKNISESLGEQNRTEYGKDSNTDKHLEPLKSLGGRTSKRKKTEEESEHEVSCPQASFDKENAFPFPMDNQFSMNGDCVMDKPLDLSDRFSAIQRQEKSQGSETSKNKFRQVTLYEALKTIPKGFSSSRKASDGNCTLPKDSPGEPCSQECIILQPLNKCSPDNKPSLQIKEENAVFKIPLRPRESLETENVLDDIKSAGSHEPIKIQTRSDHGGCELASVLQLNPCRTGKIKSLQNNQDVSFENIQWSIDPGADLSQYKMDVTVIDTKDGSQSKLGGETVDMDCTLVSETVLLKMKKQEQKGEKSSNEERKMNDSLEDMFDRTTHEEYESCLADSFSQAADEEEELSTATKKLHTHGDKQDKVKQKAFVEPYFKGDERETSLQNFPHIECVRKKEERRKLLGHTCKECEIYYADMPAEEREKKLASCSRHRFRYIPPNTPENFWEVGFPSTQTCMERGYIKEDLDPCPRPKRRQPYNAIFSPKGKEQKT
